Experimental data from patent US20220153853A1.
Results are given in words; binding and its absence hold for the method and conditions named. Binding can be weak; no strength is given.

B1: ch1803 (antibody, human IgG4 S228P, kappa, F234A L235A, V domains shown)
VH: QFQLHQSGAELVKPGASVKLSCKATGYTFTDYWIEWVKQRPGHGLEWIGEILPGSTYTNYNEKFKGRATFTAEPSSSSAYMQLSGLTTEDSAIYYCSRGLSTLMAVDYFDYWGQGTTLTVSS
VL: DIQMTQTTSSLSASLGDRVTINCRASQDISNYLNWYQQKPDGTVKLLIYYSSTLHSGVPSRFSGSGSGTDYSLTISHLEQEDIATYFCQQTNIFPWTFGGGTKLEIRT
B2: ch1805 (antibody, human IgG4 S228P, kappa, F234A L235A, V domains shown)
VH: EVQLQQSGPELVKPGASVKIPCKTSGYTFTDYNMDWVKQSHGRSLEWIGSIDPDNGGTIYNQKFKGKATLTVDKSSSTAYMELRSLTSEDTAVYYCTRDYYGSSSWFAYWGQGTLVTVSA
VL: DVVMTQSPATLSVTPGDRVSLSCRASQSISDYLHWYQQKSHESPRLLIKYASQSISGIPSRFSGSGSGSDFTLSINSVEPEDVGVYYCQNGHSFPYTFGGGTKLEIKR
B3: ch1808 (antibody, human IgG4 S228P, kappa, F234A L235A, V domains shown)
VH: QVQLQQSGAELARPGASVKLSCKASGDTFTTNGISWVKQRIGQGLEWIGEIYPRSGNTYYNENFKGKATLTADKSSTTAYMELRRLTSEDSAVYFCARSITSVIGADYFDYWGQGTTLTVSS
VL: DIQMTQTTSSLSASLGDRVTISCRASQDISNYLNWYQKKPDGTVKLLIYYSSTLHSGVPSRFSGSGSGTDYSLTISNLEQEDIATYFCQQGNTFPWTFGGGTKLEIKR
B4: ch1810 (antibody, human IgG4 S228P, kappa, F234A L235A, V domains shown)
VH: QVQLQQSGTELARPGTSVTLSCKASGYTFTNYAISWVKQRTGQGLEWIGEIYPTSGNTYYNEKFKGKATLTADRSSKTMYMELRSLTSVDSAVYFCASGVITTVVSTDYFDYWGQGSPLTVSS
VL: DIQMTQIPSSLSVSLGDRVTISCRASLDISNYLNWYQLKPDGTVKLLIYYTSTLHSGVSSRFSGSGSGTEYSLTISNLEQEDIATYFCQQGNMVPYTFGGGTKLEIKR
B5: ch1817 (antibody, human IgG4 S228P, kappa, F234A L235A, V domains shown)
VH: EVQLVESGGDLVQPGRSMKLSCAASGFTFSNYYMAWVRQAPTKGLEWVASISTGGVNTYYRDSVKGRFTISRDNAKNNLYLQMDSLRSEETATYYCARHTTADYFYGIYFALDAWGQGTSVTVSS
VL: QFTLTQPKSVSGSLRSTITIPCERSSGDIGDSYVNWYQQHLGRPPLNVIYADVQRPSEVSDRFSGSIDSSSNSASLTITNLQMDDEADYFCQSYDTNIDIIFGGGTKLTVLR
B6: ch1822 (antibody, human IgG4 S228P, kappa, F234A L235A, V domains shown)
VH: EVRLVESGGDFVQPGRSVKLSCAASGFTFSNYYMAWVRQAPTKGLEWVGSISTGGVNTYYRDSVKGRFTISRDNAESTLYLQMDSLRSEETATYYCARHTTPDYHYGIYFAMDAWGQGTSVTVSS
VL: QVTLTQPKSVSGSLRSTITIPCERSSGDIGESYVNWYQQHLGRPPINVIYADDQRPSEVSDRFSGSIDSSSNSASLTITNLQVDDEADYFCQSYDSSIDIFFGGGTKLTVLR

The binders below were run against Cynomolgus monkey GCGR (cynomolgus monkey) (assay: cell ELISA on fixed CHO cells overexpressing GCGR).

binding, binds:
B1
B2
B3
B4
B5
B6
